From paper doi:10.1101/2025.01.31.25321508
No constants are given. Whether binding was seen depends on the method and setting. Binding seen in cells or lysates may run through a third protein. Some results given as binding are weak or reduced against the parent protein; the word gives no strength.

Sequences of proteins named here, by UniProt entry; tags and fusion partners are left off.
UniProt Q91V33: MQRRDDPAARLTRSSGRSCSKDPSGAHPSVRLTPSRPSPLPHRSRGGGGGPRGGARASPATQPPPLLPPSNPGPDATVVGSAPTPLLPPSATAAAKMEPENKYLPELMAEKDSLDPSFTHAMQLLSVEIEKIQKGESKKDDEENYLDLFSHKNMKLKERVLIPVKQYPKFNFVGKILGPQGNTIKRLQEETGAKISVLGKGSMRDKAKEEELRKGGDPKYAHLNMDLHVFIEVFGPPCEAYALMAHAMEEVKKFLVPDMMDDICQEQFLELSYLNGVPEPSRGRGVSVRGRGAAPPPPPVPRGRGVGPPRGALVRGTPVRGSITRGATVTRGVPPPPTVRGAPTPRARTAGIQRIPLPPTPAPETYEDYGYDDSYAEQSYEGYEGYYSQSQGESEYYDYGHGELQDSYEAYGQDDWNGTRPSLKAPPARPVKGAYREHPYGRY
UniProt Q60749: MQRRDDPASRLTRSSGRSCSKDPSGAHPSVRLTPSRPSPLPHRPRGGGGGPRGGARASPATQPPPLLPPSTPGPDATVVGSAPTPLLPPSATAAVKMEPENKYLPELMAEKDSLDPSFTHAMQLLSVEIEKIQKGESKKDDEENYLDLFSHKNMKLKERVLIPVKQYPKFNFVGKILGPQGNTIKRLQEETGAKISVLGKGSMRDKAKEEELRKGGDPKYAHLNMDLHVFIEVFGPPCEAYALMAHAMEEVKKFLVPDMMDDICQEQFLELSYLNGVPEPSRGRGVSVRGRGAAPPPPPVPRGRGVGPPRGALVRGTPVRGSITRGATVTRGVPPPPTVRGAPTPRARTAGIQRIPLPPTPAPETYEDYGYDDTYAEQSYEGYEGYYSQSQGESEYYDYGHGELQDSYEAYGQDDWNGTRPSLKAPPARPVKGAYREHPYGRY
UniProt P52631: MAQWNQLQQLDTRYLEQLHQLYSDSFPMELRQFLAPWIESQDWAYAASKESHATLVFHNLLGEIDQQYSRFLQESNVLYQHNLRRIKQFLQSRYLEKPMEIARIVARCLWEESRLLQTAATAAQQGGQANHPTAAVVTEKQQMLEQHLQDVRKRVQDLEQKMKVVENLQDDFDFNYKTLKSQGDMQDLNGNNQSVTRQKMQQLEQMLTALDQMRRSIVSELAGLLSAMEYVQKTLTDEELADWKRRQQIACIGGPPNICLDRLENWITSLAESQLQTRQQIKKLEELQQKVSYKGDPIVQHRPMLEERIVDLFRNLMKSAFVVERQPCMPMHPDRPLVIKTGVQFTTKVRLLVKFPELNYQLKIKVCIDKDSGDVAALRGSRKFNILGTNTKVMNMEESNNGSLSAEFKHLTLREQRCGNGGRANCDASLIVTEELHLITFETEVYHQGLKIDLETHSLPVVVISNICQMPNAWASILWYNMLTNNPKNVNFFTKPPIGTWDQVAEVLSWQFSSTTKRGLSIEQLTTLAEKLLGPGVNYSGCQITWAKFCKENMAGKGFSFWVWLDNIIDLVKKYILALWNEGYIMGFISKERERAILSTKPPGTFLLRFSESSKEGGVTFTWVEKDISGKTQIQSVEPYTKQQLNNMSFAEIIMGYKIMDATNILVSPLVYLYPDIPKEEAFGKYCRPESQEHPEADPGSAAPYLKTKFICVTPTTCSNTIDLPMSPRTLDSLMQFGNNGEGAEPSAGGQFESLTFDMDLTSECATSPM
UniProt P42227: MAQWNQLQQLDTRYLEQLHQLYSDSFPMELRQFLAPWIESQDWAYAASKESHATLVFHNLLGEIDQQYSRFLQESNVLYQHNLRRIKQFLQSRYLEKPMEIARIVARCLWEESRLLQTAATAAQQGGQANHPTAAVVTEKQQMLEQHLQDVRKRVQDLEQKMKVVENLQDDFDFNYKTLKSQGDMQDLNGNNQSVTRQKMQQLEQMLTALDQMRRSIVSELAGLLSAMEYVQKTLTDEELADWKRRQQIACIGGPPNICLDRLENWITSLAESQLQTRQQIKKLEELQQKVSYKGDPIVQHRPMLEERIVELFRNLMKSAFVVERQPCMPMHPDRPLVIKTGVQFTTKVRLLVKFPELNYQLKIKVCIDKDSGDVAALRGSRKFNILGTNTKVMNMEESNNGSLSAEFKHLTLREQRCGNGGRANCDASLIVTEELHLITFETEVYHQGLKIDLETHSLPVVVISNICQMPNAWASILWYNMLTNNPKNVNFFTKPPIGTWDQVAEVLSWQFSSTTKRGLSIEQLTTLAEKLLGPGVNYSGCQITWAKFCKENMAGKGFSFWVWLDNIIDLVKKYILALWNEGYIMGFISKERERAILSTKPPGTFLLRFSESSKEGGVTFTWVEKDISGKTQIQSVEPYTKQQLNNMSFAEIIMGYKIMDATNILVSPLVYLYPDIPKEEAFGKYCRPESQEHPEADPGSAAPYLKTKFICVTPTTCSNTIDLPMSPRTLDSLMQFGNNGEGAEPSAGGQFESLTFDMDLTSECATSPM

Experiments:
[1] = biological target: endogenous Sam68 (rat (endogenous in NRVMs)) (UniProt Q91V33); assay: co-IP
[2] = biological target: Flag-Sam68 (Src-associated in mitosis 68 kDa) (UniProt Q60749); assay: co-IP

Row | binding [1] | Substance | binding [2]
1 | binds | STAT3 (from UniProt P52631 1-770) | 
2 |  | STAT3 (from UniProt P42227 1-770) | binds
